Data as given in PubChem BioAssay AID743121 (NCATS, 2013)

Aim: 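Partners whose loss is lethal together with topoisomerase I blockade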 (primary screen)
Cell system: MDA-MB-231 cells, a human breast cancer line
Reagent: single siRNA against human genes, 20 nM siRNA (0.8 pmol per well)
Time to read-out: 120 h (drug added 48 h after transfection, read 72 h later)
Challenge: camptothecin 20 nM (about EC30) for 72 h; vehicle 0.1% DMSO in parallel plates
Measured: 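CellTiter-Glo ATP signal, scaled to control siRNA as percent viability; sensitisation given as log2 of untreated divided by camptothecin-treated viability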
Scale: log2 vehicle/camptothecin viability: higher = stronger sensitisation to camptothecin
Call rule: 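Active genes have an RSA gene-level p-value below 0.001, computed from the ratios of their separate siRNAs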
Here is an unselected part of about 26,000 deposited reagents. Of all reagents, 167 (0.63%) were called active. 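Calls are per gene from RSA p-values that are not deposited; an individual active-marked siRNA can sensitise only weakly.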 A number with no mark means an inactive call. Reagents against one gene are numbered here. Further read-outs or replicates are left out here.

gene symbol	reagent	log2 vehicle/camptothecin viability
CCL18 (GeneID 6362)	1	-0.333
CCL18 (GeneID 6362)	2	-0.242
CCL18 (GeneID 6362)	3	0.137
CCL18 (GeneID 6362)	4	-0.358
HTRA4 (GeneID 203100)	1	-0.336
HTRA4 (GeneID 203100)	2	0.316
HTRA4 (GeneID 203100)	3	0.35
HTRA4 (GeneID 203100)	4	-0.0275
DNM1 (GeneID 1759)	1	-0.119
DNM1 (GeneID 1759)	2	-0.254
DNM1 (GeneID 1759)	3	-0.32
DNM1 (GeneID 1759)	4	0.0799
TFAM (GeneID 7019)	1	-0.000123
TFAM (GeneID 7019)	2	-0.436
TFAM (GeneID 7019)	3	-0.2
TFAM (GeneID 7019)	4	-0.438

Taken from above:
For “log2 vehicle/camptothecin viability”, HTRA4 (GeneID 203100) #1 reads -0.336
Result for TFAM (GeneID 7019) #4 under “log2 vehicle/camptothecin viability”: -0.438
Value for DNM1 (GeneID 1759) #4 in “log2 vehicle/camptothecin viability”: 0.0799

The listing continues:
gene symbol	reagent	log2 vehicle/camptothecin viability
TRIM25 (GeneID 7706)	1	-0.268
TRIM25 (GeneID 7706)	2	0.363
TRIM25 (GeneID 7706)	3	-0.32
TRIM25 (GeneID 7706)	4	-0.183
LBR (GeneID 3930)	1	-0.234
LBR (GeneID 3930)	2	-0.56
LBR (GeneID 3930)	3	-0.134
SYVN1 (GeneID 84447)	1	-0.257
SYVN1 (GeneID 84447)	2	0.296
SYVN1 (GeneID 84447)	3	-0.134
SYVN1 (GeneID 84447)	4	-0.0893
GDF11 (GeneID 10220)	1	-0.178
GDF11 (GeneID 10220)	2	0.00663
GDF11 (GeneID 10220)	3	0.0284
